# Test results reported in PubChem BioAssay AID1671190 (National Center for Advancing Translational Sciences (NCATS), 2021).
# Sequences of proteins named here, by UniProt entry; tags and fusion partners are left off. A change or cut given only in a name is not applied to a line headed by its entry.
# UniProt P18054: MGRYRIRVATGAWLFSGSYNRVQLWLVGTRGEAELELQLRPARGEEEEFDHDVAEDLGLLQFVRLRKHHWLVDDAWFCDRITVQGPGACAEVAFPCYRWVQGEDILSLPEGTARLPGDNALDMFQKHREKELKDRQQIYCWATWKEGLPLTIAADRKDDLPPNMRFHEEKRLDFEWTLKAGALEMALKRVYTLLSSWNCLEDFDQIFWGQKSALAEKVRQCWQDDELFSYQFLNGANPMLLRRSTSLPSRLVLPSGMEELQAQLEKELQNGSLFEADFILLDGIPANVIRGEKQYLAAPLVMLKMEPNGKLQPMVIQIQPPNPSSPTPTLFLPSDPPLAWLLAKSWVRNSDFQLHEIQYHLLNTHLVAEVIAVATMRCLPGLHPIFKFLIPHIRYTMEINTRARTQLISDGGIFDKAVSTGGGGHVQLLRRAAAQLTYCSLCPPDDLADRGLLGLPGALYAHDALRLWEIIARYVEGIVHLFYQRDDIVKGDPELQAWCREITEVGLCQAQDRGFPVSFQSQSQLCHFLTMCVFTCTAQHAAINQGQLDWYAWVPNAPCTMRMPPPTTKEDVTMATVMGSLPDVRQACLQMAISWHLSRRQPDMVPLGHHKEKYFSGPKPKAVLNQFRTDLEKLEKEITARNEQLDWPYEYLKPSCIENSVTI
# The campaign covered roughly 580,000 compounds. About 6,100 (1.1%) were called active. The inconclusive results got no clear call from the source; some entries with a clear call stand among them for comparison. Calls come from the whole dose curve; as a rule, active = well fitted inhibition curve with a large enough effect; inconclusive = small, poorly fitted or top-dose-only effect, or another doubt; inactive = no such curve, though single readings can be large or run the other way. Potencies beside an inconclusive call are fits to weak or partial responses and may not hold up.
# Target: Polyunsaturated fatty acid lipoxygenase ALOX12 (Homo sapiens) (UniProt P18054)
# Assay: Primary qHTS assay for inhibitors of human arachidonate 12S-lipoxygenase (ALOX12): Round 2
# Conditions: purified 12hLO, xylenol orange hydroperoxide absorbance; activity change, negative = inhibition: at 108 µM (top of the series) unless noted
# Method in brief: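 Hydroperoxide product was detected by ferrous iron/xylenol orange as the 573 to 405 nm absorbance ratio. Arachidonic acid at 40 uM (final) was turned over for 30 min at room temperature by 150 nM human 12hLO, pH 7.0 Hepes buffer, after 15 min compound preincubation.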
# % is set by controls: 0 for no effect and ±100 for the full control effect; potency is the fitted concentration of half-maximal effect.
Structure (SMILES),Potency,"activity change, negative = inhibition"
Cc1ccc(N=Cc2c(O)n(-c3nccs3)c(=O)c3ccccc23)cc1,"inconclusive: 100 µM [inhibitor, partial curve, poor fit]",
COc1cc(NC(=O)CN(C)Cc2ccc(OC(F)F)cc2)c(C)cc1[N+](=O)[O-],"inconclusive: 20 µM [inhibitor, partial curve, poor fit]",
Cc1nnc(SCC(=O)Nc2cc(S(C)(=O)=O)ccc2Cl)n1Cc1ccccc1,,inactive: -0.578%
O=S(=O)(CCN1CCCCC1)c1ccccc1,,inactive: -2.5%
Cc1ccc(Cn2nnc3c(=O)[nH]c(C4CCN(S(=O)(=O)/C=C/c5ccccc5)CC4)nc32)cc1,"inconclusive: 50.1 µM [inhibitor, partial curve, poor fit]",
CCN1CCN(c2ncc(C(=O)Nc3c(F)cc(F)cc3Br)c3ccccc23)CC1,"inconclusive: 44.7 µM [inhibitor, partial curve, poor fit]",
O=C(Cn1ccccc1=O)Nc1ccc(Cl)cc1Cl,"inconclusive: 89.1 µM [inhibitor, single point]",
CC(=O)NCCNc1nc(NC(C)C)nc2ccsc12,"inconclusive: 89.1 µM [inhibitor, partial curve, poor fit]",
Cc1nc2cnc(Nc3ccccc3)nc2n(Cc2ccc(F)cc2)c1=O,"inconclusive: 35.5 µM [inhibitor, single point]",
CC(=O)c1ccc(S(=O)(=O)N2CCCC(N(C)CCc3ccccn3)C2)cc1 (stereo not drawn),,inactive: -10.6%
Cc1noc2ncnc(Oc3ccc(Cl)cc3Cl)c12,,inactive: -18.6%
Cc1ccccc1NC1(c2nnnn2-c2c(C)cccc2C)CCCC1,,inactive: -36.3%
CC(C)c1ccc(/C=N/n2c(COc3ccccc3)n[nH]c2=S)cc1,"inconclusive: 112 µM [inhibitor, single point]",
Cc1ccc(C)c(NC(=O)C2=Cc3sc4c(c3CS2)CCCC4)c1,active: 17.8 µM,
CCCCn1c(SCc2cc(=O)oc3cc(C)ccc23)n[nH]c1=O,"inconclusive: 17.8 µM [inhibitor, partial curve]",
Cn1c(=O)c2c(ncn2CCCC(=O)Nc2cccc(N3CCCC3=O)c2)n(C)c1=O,"inconclusive: 112 µM [inhibitor, single point]",
CCCNC(=O)N[C@@H]1CCC[C@@H](C(=O)NCCOC)CC(=O)N(C)C1,active: 25.1 µM,
Cc1ccc(C2C=C(c3ccc4c(c3)OCO4)Nc3ncnn32)cc1 (stereo not drawn),"inconclusive: 50.1 µM [inhibitor, partial curve, poor fit]",
COc1ccc(Nc2c(-c3cc(Br)ccc3O)nc3ncccn23)cc1OC,,inactive: -6.4%
O=C(Nc1ccccn1)c1sc2cc([N+](=O)[O-])ccc2c1Cl,"inconclusive: 39.8 µM [inhibitor, partial curve, poor fit]",
COc1ccccc1C(=O)Nc1cc2c(cc1N1CCCCC1)n(C)c(=O)n2C,,inactive: -62.4%
COc1cc(/C=C(\C#N)C(=O)Nc2ccc3c(c2)OCCO3)ccc1O,"inconclusive: 31.6 µM [inhibitor, partial curve]",
CC(=O)C1=C(C)OC(N)=C(C#N)C1c1ccco1 (stereo not drawn),"inconclusive: 8.91 µM [inhibitor, partial curve, poor fit]",

Structure (SMILES),Potency,"activity change, negative = inhibition"
Cc1ccccc1OCC(=O)N(Cc1ccco1)c1c(N)n(Cc2ccccc2)c(=O)[nH]c1=O,,inactive: 2.81%
O=C(CCCCCn1c(=S)[nH]c2ccc(N3CCOCC3)cc2c1=O)NCc1ccc2c(c1)OCO2,,inactive: -15.1%
CC1Cc2ccccc2N1CC(=O)NC(=O)NC1CCCCC1 (stereo not drawn),"inconclusive: 70.8 µM [inhibitor, partial curve, poor fit]",
Cc1[nH]n(-c2ccccc2)c(=O)c1C(C[N+](=O)[O-])c1ccc(Cl)cc1 (stereo not drawn),"inconclusive: 50.1 µM [inhibitor, partial curve, poor fit]",
CSCC(=O)NCCC[C@H](NC(=O)[C@@H]1[C@@H](NC(=O)Nc2ccc(F)cc2F)CCN1C(=O)CSC)C(N)=O,"inconclusive: 39.8 µM [inhibitor, full curve, poor fit]",
CCOCCOC(=O)C(C)Oc1ccc2c(=O)c(-c3ccccc3OC)c(C(F)(F)F)oc2c1 (stereo not drawn),"inconclusive: 112 µM [inhibitor, single point]",
O=C(Nc1nc(-c2ccccn2)cs1)Nc1ccc(F)cc1F,"inconclusive: 56.2 µM [inhibitor, partial curve, poor fit]",
COc1ccccc1-c1ccnc(-c2nnc(C)n2CCN2CCOCC2)c1,"inconclusive: 100 µM [inhibitor, partial curve, poor fit]",
COc1ccc(OCCNC(=S)Nc2cccc3ccccc23)cc1,"inconclusive: 22.4 µM [inhibitor, full curve, poor fit]",
CN1/C(=C\C=Nc2cc(S(=O)(=O)N3CCOCC3)ccc2N2CCOCC2)C(C)(C)c2ccccc21,"inconclusive: 44.7 µM [inhibitor, partial curve, poor fit]",
O=S1(=O)CCC(n2ncc3c2/C(=C/c2ccccc2)CC3)C1 (stereo not drawn),"inconclusive: 100 µM [inhibitor, single point]",
CCN(CC)c1c([N+](=O)[O-])ncn1C,,inactive: -9.06%
Cc1ccc(-c2nc(CC(=O)NCc3ccc(Cl)cc3)cs2)o1,"inconclusive: 11.2 µM [inhibitor, full curve, poor fit]",
O=C(Nc1ccccc1C(=O)Nc1nnc(C(F)(F)F)s1)c1ccccc1,,inactive: 12.8%
COc1ccc(Cn2c(CCCO)nc3ccccc32)cc1OC,,inactive: 0%
CCn1c(C(C)(C)Oc2ccc(Cl)c(C)c2)n[nH]c1=S,"inconclusive: 79.4 µM [inhibitor, partial curve, poor fit]",
Cc1csc(NC(=O)c2cc3ccccc3o2)n1,,inactive: -22.5%
Cc1ccc(-c2noc(CNC(=O)c3ccc(C(C)(C)C)cc3)n2)cc1,,inconclusive: -40.7% [inhibitor]
COC(=O)c1cc(NCc2ccccc2)ccc1N1CCOCC1,"inconclusive: 89.1 µM [inhibitor, single point]",
Cc1cc(C)c(S(=O)(=O)N2CCN(Cc3coc(-c4cccs4)n3)CC2)c(C)c1,,inactive: 3.67%
O=C(c1cc(S(=O)(=O)N2CCOCC2)c(Cl)cc1Cl)N1CCCC1,,inactive: 11.2%
O=C(CN1C(=O)C(=O)N(Cc2ccco2)C1=O)Nc1ccccc1,"inconclusive: 7.94 µM [inhibitor, full curve, poor fit]",
CCOC(=O)CN(C)Cc1cc(=O)oc2cc(C)c(Cl)cc12,,inactive: -12.8%

# 3 entries out of the list, arranged by heavy-atom count, ascending.
Structure (SMILES),Potency,"activity change, negative = inhibition"
CCn1c(C(C)(C)Oc2ccc(Cl)c(C)c2)n[nH]c1=S,"inconclusive: 79.4 µM [inhibitor, partial curve, poor fit]",
CCOC(=O)CN(C)Cc1cc(=O)oc2cc(C)c(Cl)cc12,,inactive: -12.8%
O=C(Nc1ccccc1C(=O)Nc1nnc(C(F)(F)F)s1)c1ccccc1,,inactive: 12.8%

# Remaining list, next part:

Structure (SMILES),Potency,"activity change, negative = inhibition"
FC(F)(F)c1ccnc(Oc2ccc(-c3nc4ccccc4s3)cc2)n1,"inconclusive: 28.2 µM [inhibitor, single point]",
Nc1nccnc1C(=O)NCc1ccc(Oc2ccc(F)cc2)cc1,,inactive: -3.25%
O=C(Nc1ccccn1)c1ccc2ccccc2n1,"inconclusive: 35.5 µM [inhibitor, partial curve, poor fit]",
COc1cc(/C=C/C(O)=C/C(=O)/C=C/c2ccc(O)cc2)ccc1O,active: 12.6 µM,
CC(C)(C)c1ccc(CSc2ccc(S(=O)(=O)N3CCOCC3)cn2)cc1,"inconclusive: 22.4 µM [inhibitor, partial curve, poor fit]",
CC(Sc1nnc(-c2cccs2)n1N)C(=O)NCC1CCCO1 (stereo not drawn),"inconclusive: 89.1 µM [inhibitor, single point]",
COc1ccc(N2CCN(c3cc(C)nc4nc(-c5ccc(C)cc5)nn34)CC2)cc1,,inactive: -9.42%
CCOCCOC(=O)c1ccc(NC(=O)c2cc3ccccc3o2)cc1,,inactive: -20.1%
O=C(O)C(=O)/C(=C/c1cccs1)c1ccc2ccccc2n1,"inconclusive: 11.2 µM [inhibitor, full curve, poor fit]",
CC(C)(C)n1nc2c(c1NC(=O)Cc1ccc(F)cc1)CSC2,"inconclusive: 44.7 µM [inhibitor, partial curve, poor fit]",
COc1ccc(NC(=O)CN(C)C(=O)c2cccc(S(=O)(=O)N3CC4(C)CC3CC(C)(C)C4)c2)cc1 (stereo not drawn),"inconclusive: 56.2 µM [inhibitor, partial curve, poor fit]",
COc1ccc(CN2CC(Oc3ccc(F)cc3C)C2)cc1,,inactive: 46.6% [at 176 µM]
COc1ccc(N(C(=O)Cc2cccs2)C(C(=O)NC2CCCC2)c2ccncc2)cc1 (stereo not drawn),,inactive: 8.96%
O=S(=O)(c1cccc2nsnc12)N(Cc1ccncc1)C1CC1,"inconclusive: 35.5 µM [inhibitor, partial curve, poor fit]",
CCOC(=O)N1CCC(N2CCN(S(=O)(=O)c3ccc(C)cc3)CC2)CC1,"inconclusive: 0.355 µM [inhibitor, full curve, poor fit]",
CCOc1ccccc1C(=O)N1CCC(c2n[nH]c(=O)n2-c2ccc(C)cc2)CC1,"inconclusive: 44.7 µM [inhibitor, partial curve]",
O=C(COC(=O)c1cc(Cl)nc(Cl)c1)NC1CCCCCC1,"inconclusive: 112 µM [inhibitor, single point]",
CN(C)CC/C=C1\c2ccccc2Sc2cc(F)c(Cl)cc21,"inconclusive: 44.7 µM [inhibitor, partial curve, poor fit]",
Nc1ncc(S(=O)(=O)Nc2ccccc2)cn1,"inconclusive: 31.6 µM [inhibitor, full curve, poor fit]",
COC(=O)[C@]12C[C@H](CC(=O)N3CCOCC3)C(=O)N(Cc3ccco3)C1=C[C@H](COCc1ccccc1)O[C@@H]2C,,inactive: -16.2%
COc1cc(C(O)c2nc(-c3cccc(C(F)(F)F)c3)cs2)ccc1F (stereo not drawn),"inconclusive: 89.1 µM [inhibitor, single point]",
